{"sequences": {"note": "Protein sequences, listed by entry. Tags and fused reporters are not part of them. Lines headed by an entry give the natural chain unless they say otherwise; changes in a name come on top. Residues count along the entry.", "UniProt O75179": "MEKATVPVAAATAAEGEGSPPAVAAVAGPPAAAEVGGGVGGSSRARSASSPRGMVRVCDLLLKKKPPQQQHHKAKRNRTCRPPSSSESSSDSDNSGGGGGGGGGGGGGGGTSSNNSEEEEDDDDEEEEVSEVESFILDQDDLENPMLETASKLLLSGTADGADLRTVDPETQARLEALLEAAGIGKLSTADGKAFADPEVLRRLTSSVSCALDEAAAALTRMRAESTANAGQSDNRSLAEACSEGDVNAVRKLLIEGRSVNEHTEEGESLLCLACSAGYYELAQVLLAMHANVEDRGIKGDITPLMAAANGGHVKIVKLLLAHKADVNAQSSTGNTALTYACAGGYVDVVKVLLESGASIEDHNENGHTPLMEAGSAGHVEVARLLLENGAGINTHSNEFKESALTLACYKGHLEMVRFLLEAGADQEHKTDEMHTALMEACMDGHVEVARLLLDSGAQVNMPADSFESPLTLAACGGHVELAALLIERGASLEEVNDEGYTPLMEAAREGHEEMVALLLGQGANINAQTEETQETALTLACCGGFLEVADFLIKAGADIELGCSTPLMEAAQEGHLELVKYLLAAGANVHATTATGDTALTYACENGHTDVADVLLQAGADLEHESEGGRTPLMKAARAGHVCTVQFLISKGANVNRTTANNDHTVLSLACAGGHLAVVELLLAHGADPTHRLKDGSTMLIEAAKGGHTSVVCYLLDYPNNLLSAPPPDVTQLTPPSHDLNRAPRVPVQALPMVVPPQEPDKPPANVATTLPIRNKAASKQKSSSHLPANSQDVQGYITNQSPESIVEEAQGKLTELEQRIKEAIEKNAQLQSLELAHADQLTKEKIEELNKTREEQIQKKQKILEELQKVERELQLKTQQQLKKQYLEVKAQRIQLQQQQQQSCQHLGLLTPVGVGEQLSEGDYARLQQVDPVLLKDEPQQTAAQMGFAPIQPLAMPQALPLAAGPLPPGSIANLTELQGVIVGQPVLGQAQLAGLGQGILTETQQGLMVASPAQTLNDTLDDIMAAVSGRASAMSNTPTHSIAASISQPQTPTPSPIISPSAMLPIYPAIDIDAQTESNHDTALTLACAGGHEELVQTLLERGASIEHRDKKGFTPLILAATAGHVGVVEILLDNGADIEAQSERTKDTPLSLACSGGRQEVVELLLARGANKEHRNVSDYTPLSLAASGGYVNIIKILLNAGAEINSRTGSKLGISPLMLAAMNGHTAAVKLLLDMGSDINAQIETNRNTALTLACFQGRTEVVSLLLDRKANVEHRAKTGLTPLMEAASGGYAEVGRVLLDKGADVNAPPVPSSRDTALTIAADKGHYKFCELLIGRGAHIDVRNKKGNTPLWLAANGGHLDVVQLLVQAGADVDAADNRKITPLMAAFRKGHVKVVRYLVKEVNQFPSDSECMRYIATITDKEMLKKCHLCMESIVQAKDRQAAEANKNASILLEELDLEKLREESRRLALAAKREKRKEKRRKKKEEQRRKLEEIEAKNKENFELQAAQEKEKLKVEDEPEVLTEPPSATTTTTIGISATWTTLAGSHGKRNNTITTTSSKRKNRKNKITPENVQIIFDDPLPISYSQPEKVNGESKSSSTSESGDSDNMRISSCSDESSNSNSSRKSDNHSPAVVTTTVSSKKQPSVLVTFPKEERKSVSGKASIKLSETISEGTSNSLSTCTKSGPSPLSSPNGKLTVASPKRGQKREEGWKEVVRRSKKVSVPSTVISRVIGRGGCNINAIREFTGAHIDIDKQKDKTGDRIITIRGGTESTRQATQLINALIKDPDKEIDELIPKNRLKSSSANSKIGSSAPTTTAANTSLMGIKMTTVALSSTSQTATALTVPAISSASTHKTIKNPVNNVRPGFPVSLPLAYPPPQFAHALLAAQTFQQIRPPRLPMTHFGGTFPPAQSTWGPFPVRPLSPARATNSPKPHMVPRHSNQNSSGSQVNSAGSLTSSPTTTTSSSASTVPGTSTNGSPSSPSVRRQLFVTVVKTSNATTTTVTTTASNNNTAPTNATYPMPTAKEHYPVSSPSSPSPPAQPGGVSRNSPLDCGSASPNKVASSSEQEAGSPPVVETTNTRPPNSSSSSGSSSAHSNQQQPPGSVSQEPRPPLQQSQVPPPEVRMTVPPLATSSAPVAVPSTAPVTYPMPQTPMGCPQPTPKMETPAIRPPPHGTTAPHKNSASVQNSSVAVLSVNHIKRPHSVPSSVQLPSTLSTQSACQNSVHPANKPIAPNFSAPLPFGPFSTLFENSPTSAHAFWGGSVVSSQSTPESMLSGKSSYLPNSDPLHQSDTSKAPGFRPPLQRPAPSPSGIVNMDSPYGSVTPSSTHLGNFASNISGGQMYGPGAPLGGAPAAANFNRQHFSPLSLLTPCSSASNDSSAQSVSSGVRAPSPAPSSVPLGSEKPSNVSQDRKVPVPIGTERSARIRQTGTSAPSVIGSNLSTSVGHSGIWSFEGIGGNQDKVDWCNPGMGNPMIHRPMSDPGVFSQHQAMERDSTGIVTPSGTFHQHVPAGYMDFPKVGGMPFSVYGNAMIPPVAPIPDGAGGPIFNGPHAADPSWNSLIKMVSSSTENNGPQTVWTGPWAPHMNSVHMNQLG", "UniProt P50995": "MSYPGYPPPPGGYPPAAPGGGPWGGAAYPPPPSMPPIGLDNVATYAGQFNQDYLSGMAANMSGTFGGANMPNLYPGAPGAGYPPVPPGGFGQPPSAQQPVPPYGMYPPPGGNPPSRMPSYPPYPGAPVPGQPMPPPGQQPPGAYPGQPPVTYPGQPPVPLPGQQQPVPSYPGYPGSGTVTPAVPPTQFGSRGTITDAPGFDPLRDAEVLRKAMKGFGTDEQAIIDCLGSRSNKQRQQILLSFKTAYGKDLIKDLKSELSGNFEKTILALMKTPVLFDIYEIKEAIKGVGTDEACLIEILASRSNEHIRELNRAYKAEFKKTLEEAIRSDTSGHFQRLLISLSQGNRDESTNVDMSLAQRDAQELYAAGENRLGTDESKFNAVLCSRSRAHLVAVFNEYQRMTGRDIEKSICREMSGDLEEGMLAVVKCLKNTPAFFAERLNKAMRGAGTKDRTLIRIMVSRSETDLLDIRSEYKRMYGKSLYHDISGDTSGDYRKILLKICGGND", "UniProt Q14CB8": "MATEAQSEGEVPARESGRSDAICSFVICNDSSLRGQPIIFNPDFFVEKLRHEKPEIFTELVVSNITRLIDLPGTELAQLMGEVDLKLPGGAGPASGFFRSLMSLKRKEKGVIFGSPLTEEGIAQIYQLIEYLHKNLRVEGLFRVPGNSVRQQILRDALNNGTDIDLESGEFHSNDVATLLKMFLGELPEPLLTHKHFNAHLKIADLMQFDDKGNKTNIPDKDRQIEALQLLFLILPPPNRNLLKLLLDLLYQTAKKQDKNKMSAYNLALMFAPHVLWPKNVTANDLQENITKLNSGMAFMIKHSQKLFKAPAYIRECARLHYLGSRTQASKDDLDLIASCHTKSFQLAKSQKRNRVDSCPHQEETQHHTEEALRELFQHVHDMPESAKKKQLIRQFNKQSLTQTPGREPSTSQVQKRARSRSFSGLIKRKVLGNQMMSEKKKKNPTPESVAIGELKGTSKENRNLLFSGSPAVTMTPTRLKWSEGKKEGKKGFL", "UniProt Q4KMQ2": "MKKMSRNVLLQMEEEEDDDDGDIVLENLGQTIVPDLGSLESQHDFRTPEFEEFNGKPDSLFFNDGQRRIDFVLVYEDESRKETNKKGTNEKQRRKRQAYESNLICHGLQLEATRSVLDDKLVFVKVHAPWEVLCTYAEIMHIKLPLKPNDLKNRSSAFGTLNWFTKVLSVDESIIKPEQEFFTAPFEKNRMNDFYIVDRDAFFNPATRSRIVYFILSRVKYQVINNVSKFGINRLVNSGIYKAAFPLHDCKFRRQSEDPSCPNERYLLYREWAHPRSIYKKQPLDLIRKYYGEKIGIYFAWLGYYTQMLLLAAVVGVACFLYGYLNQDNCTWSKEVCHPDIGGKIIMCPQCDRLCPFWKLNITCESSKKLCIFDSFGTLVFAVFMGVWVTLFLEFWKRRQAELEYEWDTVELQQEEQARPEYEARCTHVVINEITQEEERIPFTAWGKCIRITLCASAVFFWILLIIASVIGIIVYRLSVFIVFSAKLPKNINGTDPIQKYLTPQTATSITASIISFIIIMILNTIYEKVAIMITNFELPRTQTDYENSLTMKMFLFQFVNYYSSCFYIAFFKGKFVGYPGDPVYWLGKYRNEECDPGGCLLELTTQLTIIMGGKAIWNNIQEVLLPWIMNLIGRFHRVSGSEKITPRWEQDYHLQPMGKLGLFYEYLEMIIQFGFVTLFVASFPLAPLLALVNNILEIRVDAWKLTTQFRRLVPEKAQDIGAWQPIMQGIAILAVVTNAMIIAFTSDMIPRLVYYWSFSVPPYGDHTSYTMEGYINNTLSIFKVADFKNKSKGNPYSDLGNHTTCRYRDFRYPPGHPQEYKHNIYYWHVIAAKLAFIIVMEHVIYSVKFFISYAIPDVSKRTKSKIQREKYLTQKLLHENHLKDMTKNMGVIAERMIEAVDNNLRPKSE", "UniProt Q3SXY8, 132-151": "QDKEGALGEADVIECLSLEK", "UniProt Q9NZN5": "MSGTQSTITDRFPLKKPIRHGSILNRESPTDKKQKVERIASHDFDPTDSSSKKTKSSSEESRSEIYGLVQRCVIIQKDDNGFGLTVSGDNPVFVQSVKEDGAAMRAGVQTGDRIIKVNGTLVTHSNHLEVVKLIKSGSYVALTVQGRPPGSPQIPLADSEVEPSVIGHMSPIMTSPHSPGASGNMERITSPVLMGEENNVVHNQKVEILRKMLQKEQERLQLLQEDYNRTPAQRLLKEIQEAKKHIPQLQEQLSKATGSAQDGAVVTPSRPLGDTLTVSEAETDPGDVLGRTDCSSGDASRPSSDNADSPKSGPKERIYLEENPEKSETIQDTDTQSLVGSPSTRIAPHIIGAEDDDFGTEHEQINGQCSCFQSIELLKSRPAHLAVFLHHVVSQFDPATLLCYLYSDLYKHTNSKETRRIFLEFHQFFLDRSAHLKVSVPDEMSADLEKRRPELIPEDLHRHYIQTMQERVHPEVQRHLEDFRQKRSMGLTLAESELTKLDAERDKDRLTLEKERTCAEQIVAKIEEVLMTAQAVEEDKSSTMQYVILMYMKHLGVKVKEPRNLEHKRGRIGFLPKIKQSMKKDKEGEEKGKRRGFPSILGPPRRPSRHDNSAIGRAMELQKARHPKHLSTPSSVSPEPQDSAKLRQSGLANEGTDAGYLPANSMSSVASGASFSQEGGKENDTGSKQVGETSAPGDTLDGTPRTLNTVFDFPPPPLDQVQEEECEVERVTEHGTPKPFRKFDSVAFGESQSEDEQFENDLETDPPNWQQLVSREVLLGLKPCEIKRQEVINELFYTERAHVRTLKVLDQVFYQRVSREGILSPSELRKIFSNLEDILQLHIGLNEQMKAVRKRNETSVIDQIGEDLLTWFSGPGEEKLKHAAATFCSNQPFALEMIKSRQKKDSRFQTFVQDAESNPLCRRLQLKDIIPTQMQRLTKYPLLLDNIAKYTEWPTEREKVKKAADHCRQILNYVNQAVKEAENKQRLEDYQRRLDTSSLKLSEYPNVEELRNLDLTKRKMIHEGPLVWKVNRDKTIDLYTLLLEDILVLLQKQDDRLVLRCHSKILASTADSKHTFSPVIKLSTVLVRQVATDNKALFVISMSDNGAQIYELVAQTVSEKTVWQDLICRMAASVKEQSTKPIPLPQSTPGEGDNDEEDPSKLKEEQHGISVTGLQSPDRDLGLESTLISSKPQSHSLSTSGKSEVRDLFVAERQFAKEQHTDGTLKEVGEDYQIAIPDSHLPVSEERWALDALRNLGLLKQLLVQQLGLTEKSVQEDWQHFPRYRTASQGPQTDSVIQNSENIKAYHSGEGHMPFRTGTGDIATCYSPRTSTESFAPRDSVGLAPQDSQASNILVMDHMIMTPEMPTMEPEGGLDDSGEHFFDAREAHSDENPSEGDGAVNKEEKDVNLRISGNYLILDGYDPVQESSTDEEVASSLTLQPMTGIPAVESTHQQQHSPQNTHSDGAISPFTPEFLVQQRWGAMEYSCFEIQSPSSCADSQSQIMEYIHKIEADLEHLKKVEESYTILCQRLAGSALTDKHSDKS", "UniProt Q9NP61": "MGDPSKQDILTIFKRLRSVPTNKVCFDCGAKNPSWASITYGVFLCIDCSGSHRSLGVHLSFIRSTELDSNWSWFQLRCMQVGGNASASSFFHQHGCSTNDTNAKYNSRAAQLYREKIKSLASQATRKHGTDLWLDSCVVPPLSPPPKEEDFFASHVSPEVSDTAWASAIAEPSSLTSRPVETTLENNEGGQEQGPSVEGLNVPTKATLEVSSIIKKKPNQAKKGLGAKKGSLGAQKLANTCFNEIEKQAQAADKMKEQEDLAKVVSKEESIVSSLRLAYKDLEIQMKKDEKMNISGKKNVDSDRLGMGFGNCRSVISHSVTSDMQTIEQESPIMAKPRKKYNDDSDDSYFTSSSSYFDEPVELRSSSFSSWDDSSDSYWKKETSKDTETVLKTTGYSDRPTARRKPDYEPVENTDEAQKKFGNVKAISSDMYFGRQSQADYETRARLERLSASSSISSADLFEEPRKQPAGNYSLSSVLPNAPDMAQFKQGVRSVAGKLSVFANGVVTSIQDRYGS"}, "source": "the supplement of paper PMC11732987", "about": "“Enantioselective OTUD7B fragment discovery through chemoproteomics screening and high-throughput optimisation” (Communications Chemistry, 2025)", "note": "This is one part of the list. The data scatter; read single values as rough.", "data": [{"compound": "ClCC(=O)N[C@H]1CCCc2ccccc12", "assay": "log2 mean competition ratio of IA-DTB cysteine labelling (DMSO/compound) (log2 ratio); higher = stronger cysteine engagement by compound", "details": "50 µM; treatment time: 4 h; cell line lysate: HEK293T", "protocol": "(§1)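 IA-DTB competitive cysteine chemoproteomics in HEK293T RIPA lysate. Lysates were treated with compound 29 or 30 at 50 or 200 µM for 4 h, then IA-DTB (500 µM, 1 h), trypsin-digested, NeutrAvidin-enriched and analysed by diaPASEF. Competition ratio = intensity DMSO / intensity compound (n=4 treated, n=64 DMSO); binding: mean log2 CR ≥ 1 and p ≤ 0.05 plus QC filters. Target is the cysteine site.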", "values": [{"target": "ANKRD17 C2063 (UniProt O75179)", "log2 mean competition ratio": 0.14}, {"target": "ANXA11 C294 (UniProt P50995)", "log2 mean competition ratio": 0.0129}, {"target": "ARHGEF26 C533", "log2 mean competition ratio": 0.0672}, {"target": "AP3M1 C29 (UniProt Q9Y2T2)", "log2 mean competition ratio": 0.177}, {"target": "ARHGAP19 C359 (UniProt Q14CB8)", "log2 mean competition ratio": 0.0282}, {"target": "ANO6 C261 (UniProt Q4KMQ2)", "log2 mean competition ratio": -0.552}, {"target": "AS3MT C85", "log2 mean competition ratio": -0.078}, {"target": "ANXA7 C285 (UniProt P20073)", "log2 mean competition ratio": 0.128}, {"target": "ARHGAP11A C791 (UniProt Q6P4F7)", "log2 mean competition ratio": -0.233}, {"target": "ARL13B C146 (UniProt Q3SXY8)", "log2 mean competition ratio": -0.0342}, {"target": "ARHGEF17 C1479", "log2 mean competition ratio": -0.255}, {"target": "AP4M1 C235 (UniProt O00189)", "log2 mean competition ratio": -0.623}, {"target": "ARID2 C382 (UniProt Q68CP9)", "log2 mean competition ratio": -0.0516}, {"target": "ARHGEF12 C1128 (UniProt Q9NZN5)", "log2 mean competition ratio": -0.165}, {"target": "ARHGEF40 C1148 (UniProt Q8TER5)", "log2 mean competition ratio": 0.139}, {"target": "AP3B1 C507 (UniProt O00203)", "log2 mean competition ratio": 0.271}, {"target": "ARAF C549 (UniProt P10398)", "log2 mean competition ratio": -0.0315}, {"target": "ANKRD17 C242 (UniProt O75179)", "log2 mean competition ratio": 0.139}, {"target": "AS3MT C32", "log2 mean competition ratio": 0.00182}, {"target": "ARFGAP3 C241 (UniProt Q9NP61)", "log2 mean competition ratio": -0.275}]}, {"compound": "ClCC(=O)N[C@H]1CCCc2ccccc12", "assay": "log2 mean competition ratio of IA-DTB cysteine labelling (DMSO/compound) (log2 ratio); higher = stronger cysteine engagement by compound", "details": "200 µM; treatment time: 4 h; cell line lysate: HEK293T", "protocol": "as §1", "values": [{"target": "ANKRD17 C2063 (UniProt O75179)", "log2 mean competition ratio": 0.127}, {"target": "ANXA11 C294 (UniProt P50995)", "log2 mean competition ratio": -0.0299}, {"target": "ARHGEF26 C533", "log2 mean competition ratio": 0.0391}, {"target": "AP3M1 C29 (UniProt Q9Y2T2)", "log2 mean competition ratio": 0.0266}, {"target": "ARHGAP19 C359 (UniProt Q14CB8)", "log2 mean competition ratio": -0.507}, {"target": "ANO6 C261 (UniProt Q4KMQ2)", "log2 mean competition ratio": 0.515}, {"target": "AS3MT C85", "log2 mean competition ratio": 0.446}, {"target": "ANXA7 C285 (UniProt P20073)", "log2 mean competition ratio": -0.233}, {"target": "ARHGAP11A C791 (UniProt Q6P4F7)", "log2 mean competition ratio": 0.0326}, {"target": "ARL13B C146 (UniProt Q3SXY8)", "log2 mean competition ratio": 0.123}, {"target": "ARHGEF17 C1479", "log2 mean competition ratio": 0.0812}, {"target": "AP4M1 C235 (UniProt O00189)", "log2 mean competition ratio": -0.0887}, {"target": "ARID2 C382 (UniProt Q68CP9)", "log2 mean competition ratio": 0.0851}, {"target": "ARHGEF12 C1128 (UniProt Q9NZN5)", "log2 mean competition ratio": 0.124}, {"target": "ARHGEF40 C1148 (UniProt Q8TER5)", "log2 mean competition ratio": 0.0333}, {"target": "AP3B1 C507 (UniProt O00203)", "log2 mean competition ratio": 0.212}, {"target": "ARAF C549 (UniProt P10398)", "log2 mean competition ratio": -0.0844}, {"target": "ANKRD17 C242 (UniProt O75179)", "log2 mean competition ratio": 0.0074}, {"target": "AS3MT C32", "log2 mean competition ratio": -0.067}, {"target": "ARFGAP3 C241 (UniProt Q9NP61)", "log2 mean competition ratio": -0.0126}]}]}
